Measurements as given in US6906179.
These are yes or no findings as the source states them, for the method shown. Some results given as binding are weak or reduced against the parent protein; the word gives no strength.

The chains behind the UniProt entries cited, without tags or fusion partners. Where a name states a change or a piece, a line headed by the entry shows the natural chain unless it says otherwise.
UniProt P84022: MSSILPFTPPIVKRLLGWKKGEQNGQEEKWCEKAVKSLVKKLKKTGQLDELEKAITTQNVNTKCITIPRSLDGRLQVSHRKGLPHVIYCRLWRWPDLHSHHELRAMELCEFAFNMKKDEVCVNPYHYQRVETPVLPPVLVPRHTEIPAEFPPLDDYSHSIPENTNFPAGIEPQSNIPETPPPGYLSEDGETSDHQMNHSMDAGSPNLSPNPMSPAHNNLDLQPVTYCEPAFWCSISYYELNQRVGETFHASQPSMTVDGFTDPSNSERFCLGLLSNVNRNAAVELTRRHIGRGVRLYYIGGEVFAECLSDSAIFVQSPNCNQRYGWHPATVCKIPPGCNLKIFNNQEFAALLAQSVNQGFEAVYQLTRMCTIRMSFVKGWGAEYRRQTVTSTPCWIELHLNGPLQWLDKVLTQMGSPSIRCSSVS
UniProt P0A7C2: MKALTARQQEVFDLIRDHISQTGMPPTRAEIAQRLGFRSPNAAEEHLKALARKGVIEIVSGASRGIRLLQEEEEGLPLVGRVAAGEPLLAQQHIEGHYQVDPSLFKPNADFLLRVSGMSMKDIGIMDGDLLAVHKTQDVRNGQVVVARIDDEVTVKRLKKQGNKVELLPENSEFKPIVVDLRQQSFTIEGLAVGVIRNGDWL

Key:
Smad3 = Smad3 (UniProt P84022); test: yeast two-hybrid; list of Smad3 interactors
[1] = target: LexA-Smad1 (full length Smad1 fused in frame to the LexA DNA binding domain (1-202) in pEG202) (UniProt P0A7C2); test: yeast two-hybrid; list of Smad1 interactors

binding (Smad3) | binding [1] | Binder
binds |  | Clone S3+125 (protein) IRHEAAGICPKIIEAEESRMGLIIVNAWYGNFVNDKSRKSEKVKVIDVTVPCSAWVRTRSSSSRGLQAGLPGFYDPCVGEEKNLKVLYQFRGVLHQVMVLDSEALRIPKQSHRIDTDG
 | binds | Clone S1+30 (protein) EFGTRRTKGIKVVGKWKEVKIDPNMFADGQMDDLVCFEELTDYQLVSPAKNSLQLSSQRKHPRERHKLFQKK
